“Also recorded” adds a separate entry of the source. At least one structure is not confirmed: it was looked up by name or label, or the drawing left a doubt. Some entries share one result that the patent states for a list of compounds.
Columns and labels:
Format in all cases: biochemical
BACE1 = experiment: BACE cleavage of the full length APP; details: result in words
BACE2 [1] = molecular target: T1, BACE2 (Homo sapiens, UniProt P05067, K670N/M671F/D672E/A673V); experiment: BACE2 cleavage of APP at the beta-secretase cleavage site (ALPHA); details: result in words
T1 construct: IC50, BACE2 cleavage of APP at the beta-secretase cleavage site; other: MBP-biotinylated APP fusion protein with NFEV s; activity against BACE2 cleavage of APP at the beta-secretase position; other: result in words; biotin label
Method: The effect of Examples 1-4 on cleavage of APP at the beta-secretase cleavage site was assayed as follows:
• 25 μL 0.2 M Sodium Acetate, pH 4.5 • 10 μL 10× protease inhibitor cocktail (Roche, cat # 1836153) • 10 μL Bovine Serum Albumin (1 mg/mL solution) • 4 μL 5% CHAPS • 1 μL EDTA (150 mM, pH 4.5) • 2 μL DF • 4 μL MBP(Maltose binding protein)—biotininylated APP fusion protein containing the NFEV BACE cleavage site (bacterially expressed, 10 μM solution) • 1 μL DMSO or compound dissolved in DMSO • 2 μL BACE2 (CHO cell expressed protein, 250 nM) • 41 μL distilled water The reactions were incubated at 37° C. for 30 minutes, and were then quenched with 4 μL 1 M TrisHCl, pH 8.0. Detection of MBP Biotin APP(NF) Cleavage Product using ALPHA ALPHA Assay Mix was Prepared as Follows: • 20 μL Streptavidin Donor Beads (from AlphaScreen General IgG (Protein A) Detection Kit Perkin Elmer Life Sciences); 10,000 pts (Part Number 6760617M) • 20 μL Protein A Acceptor beads (from AlphaScreen General IgG (Protein A) Detection Kit Perkin Elmer Life Sciences); 10,000 pts (Part Number 6760617M) • 3.7 μL Affinity purified anti-NF antibody (203 μg/mL) (described in WO 02/094985) • 4.5 mL 0.1% BSA in PBS • 4 μL of quenched reaction mixture was combined with 46 μL of the assay mix. The reactions were incubated at room temperature overnight and read using the ALPHAQuest plate reader.

BACE2 [2] = experiment: BACE2 cleavage of EV amyloid / Aβ (mass spectrometric analysis); design: key to the marks not given beside the values; details: 100 μM
Method: The effect of inhibition of BACE 2 cleavage of EV amyloid was assayed using a protocol described in Shi et al, 2003, J. Biol. Chem., 278:21286-21294. The results of assaying Examples 1-4 at 100 μM are shown below: […]

## O=C(O)COc1cc2c(cc1CCCOc1ccccc1)OC(CCc1ccccc1)C2 (stereo not drawn) [Example 1, {[6-(3-phenoxypropyl)-2-(2-phenylethyl)-2,3-dihydro-1-benzofuran-5-yl]oxy} acetic acid]
BACE1
  inhibition of BACE (BACE1) cleavage/processing of full length APP: inhibit BACE cleavage of the full length APP

## O=C(O)COc1ccc2c(c1)CC(CCc1ccccc1)O2 (stereo not drawn) [Example 3]
BACE2 [1]
  activity against BACE2 cleavage of APP at the beta-secretase position: weakly active against BACE2
BACE2 [2]
  INHIBITION OF BACE2 CLEAVAGE OF EV 1-40 AT 34 site: ++
BACE1
  inhibition of BACE (BACE1) cleavage/processing of full length APP: inhibit BACE cleavage of the full length APP; also recorded: neither blocked BACE processing of APP; also recorded: inactive against BACE1

## Oc1cc2c(cc1CCCOc1ccc(-c3nnn[nH]3)cc1Cl)OC(CCc1ccccc1)C2 (stereo not drawn) [Example 4, 6-{3-[2-chloro-4-(1H-tetrazol-5-yl)phenoxy]propyl}-2-(2-phenylethyl)-2,3-dihydro-1benzofuran-5-oI]
BACE1
  inhibition of BACE (BACE1) cleavage/processing of full length APP: inhibit BACE cleavage of the full length APP

## O=C(O)COc1cc2c(cc1CCCOc1ccccc1Cl)OC(CCc1ccccc1)C2 (stereo not drawn) [Example 2, {[6-[3-(2chlorophenoxy)propyl)-2-(2-phenylethyl)-2,3-dihydro-1-benzofuran-5-yl]oxy} acetic]
BACE1
  inhibition of BACE (BACE1) cleavage/processing of full length APP: inhibit BACE cleavage of the full length APP

Reference: patent US20070202547A1, “Methods For Detecting Substances Which Bind To The Amyloid Precursor Protein Or Beta Amyloid Fragments, And Binding Compounds” (priority 2004, published 2007)
